Measurements reported in PubChem BioAssay AID1671195 (Yale University, 2021)
The deposit covers about 22,000 reagents; below is a random part of them. About 1,510 of them (6.9%) count as active. 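Active includes knockdowns raising or lowering LDL uptake; positive z-scores mean more uptake, negative mean less.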 No sequences are given here.

- Purpose: 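Genes whose knockdown alters LDL uptake in liver cancer cells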 (primary screen)
- Cells: human Huh7 hepatoma cells
- Knock-down reagent: siRNA pool against human genes, 18 nM
- Duration: about 2 to 2.5 days of knockdown, then 8 h LDL uptake
- Conditions: DiI-labelled LDL at 30 µg/ml for 8 h, in lipoprotein-deficient serum medium
- Measurement: 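Per-cell DiI-LDL intensity by automated imaging; well means scaled to the plate median and given as a robust z-score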
- Reading the numbers: robust z-score: higher = more LDL uptake after knockdown
- Call rule: 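Active when two or more replicates show a robust z-score above 2 or below -2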

| gene | robust z-score, replicate 1 | robust z-score, replicate 2 | robust z-score, replicate 3 | activity call |
| --- | --- | --- | --- | --- |
| KANSL1L (KAT8 regulatory NSL complex subunit 1 like) | -0.165 | -0.243 | -0.415 | inactive |
| NADK2 (NAD kinase 2, mitochondrial) | -0.716 | -1.6 | -0.692 | inactive |
| DGCR8 (DGCR8 microprocessor complex subunit) | 0.259 | -1.15 | -0.627 | inactive |
| NUP43 (nucleoporin 43) | -0.0987 | -0.476 | -0.146 | inactive |
| ZNF688 (zinc finger protein 688) | -0.464 | -0.897 | -0.0975 | inactive |
| PLCB3 (phospholipase C beta 3) | 0.603 | 0.792 | 0.73 | inactive |
| MCHR1 (melanin concentrating hormone receptor 1) | 1.41 | 1.67 | 1.42 | inactive |
| GBF1 | -1.27 | 1.23 | -0.0399 | inactive |
| IKZF3 (IKAROS family zinc finger 3) | -1.32 | -1.53 | -1.32 | inactive |
| LOC441872 (retired record) | -0.234 | -0.282 | -0.376 | inactive |
| POLD3 (DNA polymerase delta 3, accessory subunit) | 0.619 | -1.02 | -0.549 | inactive |
| LIG4 (DNA ligase 4) | 1.07 | -0.0353 | -0.453 | inactive |
| DUSP26 (dual specificity phosphatase 26) | 3.51 | 4.18 | 3.49 | active |
| LOC388755 (retired record) | -0.0306 | -0.167 | -0.0845 | inactive |
| HMOX1 (heme oxygenase 1) | 0.617 | 0.675 | 0.366 | inactive |
| CCNB1 (cyclin B1) | -0.702 | 0.433 | -0.429 | inactive |
| DDIT3 (DNA damage inducible transcript 3) | -0.555 | -1.95 | -0.671 | inactive |
| ZNF334 (zinc finger protein 334) | 0.4 | 0.495 | 0.395 | inactive |
| RPL17P25 (ribosomal protein L17 pseudogene 25) | -0.78 | -1.24 | -1.15 | inactive |
| PATL1 (PAT1 homolog 1, processing body mRNA decay factor) | 0.0558 | -0.011 | 0.0251 | inactive |
| TAF7 (TATA-box binding protein associated factor 7) | 1.85 | 1.3 | 1.31 | inactive |
| PEX1 (peroxisomal biogenesis factor 1) | -0.987 | -0.265 | -0.256 | inactive |
| LOC440454 (retired record) | -0.392 | -1.15 | -0.765 | inactive |
| H2BC3 (H2B clustered histone 3) | 0.73 | 0.228 | 0.761 | inactive |
| LOC442261 (retired record) | 0.213 | -0.277 | 0.38 | inactive |
| ZNF251 (zinc finger protein 251) | -0.646 | -0.948 | -1.2 | inactive |
| CEP128 (centrosomal protein 128) | 0.557 | 0.355 | 0.226 | inactive |
| RHOA (ras homolog family member A) | -0.636 | 1.44 | 0.332 | inactive |
| TAF9 (TATA-box binding protein associated factor 9) | 2.15 | 1.73 | 0.967 | inactive |
| COA1 (cytochrome c oxidase assembly factor 1) | -0.451 | -0.14 | -0.925 | inactive |
| EPCIP-AS1 (EPCIP antisense RNA 1) | 0.94 | 0.763 | 0.748 | inactive |
| BLZF1 (basic leucine zipper nuclear factor 1) | -0.108 | -0.286 | 0.419 | inactive |
| WNT6 (Wnt family member 6) | -0.895 | 0.529 | -1.49 | inactive |
| ZNF69 (zinc finger protein 69) | 0.448 | 1.86 | 0.929 | inactive |
| MED30 (mediator complex subunit 30) | -1.6 | -0.983 | -1.83 | inactive |
| ADAM20 (ADAM metallopeptidase domain 20) | -0.141 | -0.281 | -0.116 | inactive |
| LOC442398 (retired record) | -0.271 | -0.135 | -0.175 | inactive |
| KCNJ12 (potassium inwardly rectifying channel subfamily J member 12) | -1.88 | -2.05 | -1.8 | inactive |
| SLC18A3 | 0.893 | 1.01 | 1.47 | inactive |
| UNC93A (unc-93 homolog A) | -1.47 | -1.42 | -1.07 | inactive |
| ERAP2 (endoplasmic reticulum aminopeptidase 2) | -0.325 | -0.739 | -0.315 | inactive |
| FOXO3 (forkhead box O3) | 0.125 | 0.271 | 0.868 | inactive |
| STING1 (stimulator of interferon response cGAMP interactor 1) | -1.07 | -0.978 | -1.05 | inactive |
| TMEM263 (transmembrane protein 263) | 0.0181 | 0.101 | -0.512 | inactive |
| PVT1 (Pvt1 oncogene) | -0.782 | -0.636 | -0.706 | inactive |
| PSMA8 (proteasome 20S subunit alpha 8) | 0.477 | -0.341 | -0.0755 | inactive |

No new results follow: 4 of the entries above.
| gene | robust z-score, replicate 1 | robust z-score, replicate 2 | robust z-score, replicate 3 | activity call |
| --- | --- | --- | --- | --- |
| PATL1 (PAT1 homolog 1, processing body mRNA decay factor) | 0.0558 | -0.011 | 0.0251 | inactive |
| TAF7 (TATA-box binding protein associated factor 7) | 1.85 | 1.3 | 1.31 | inactive |
| PEX1 (peroxisomal biogenesis factor 1) | -0.987 | -0.265 | -0.256 | inactive |
| LOC440454 (retired record) | -0.392 | -1.15 | -0.765 | inactive |
